For at least one entry, the source does not settle the construct or the ends of the probe. The comparison behind a weaker result is the experiment's own reference, which may not be listed here.
System: cMR1 (core RAG1, MBP fusion) + cMR2 (core RAG2, MBP fusion)
Assay: competition with a labelled probe
Settings: cold competitor against labeled 23-RSS, with or without HMGB1, summarized as within ~2-fold of 23-RSS; binding buffer; recombinant protein; protein details: N-terminal MBP,N-terminal MBP; label: 5' radiolabel, top strand, unlabeled as competitor

Sequence: TCCCCGAAAAGTGCCACCTGACGTCTAAGAAACCATTATTATCATGACATTAACCTATAAA (double strand) [bps6197]
- binding result: binds more weakly
